About 610 (0.16%) of roughly 390,000 compounds were called active. Inconclusive results, whose numbers are uncertain, are shown with a selection of clear calls. Calls follow the shape of the dose curve; as a rule, active = well fitted inhibition curve with a large enough effect; inconclusive = small, poorly fitted or top-dose-only effect, or effect the other way, or another doubt; inactive = no such curve, though single readings can be large or run the other way. A potency beside an inconclusive call is a rough fit, not a confirmed value.
Experiment: Nrf2 qHTS screen for inhibitors: counterscreen for cytotoxicity
Details: A549 ARE-Fluc cells, CellTiter-Fluor viability, 18-24 h; activity change, negative = cytotoxicity: at 46 µM (top of the series)
Procedure, shortened: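 A549 ARE-Fluc cells in 5% FBS OPTI-MEM, 5000 cells/well, rested 2 h then exposed to compounds in concentration-response for 18-24 h at 37 °C. Viability by CellTiter-Fluor fluorescence (Ex 405/Em 525) after 30 min; luciferase luminescence (BugLite, 15 min, RT) read afterwards.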
% is scaled to controls: 0 for no effect and ±100 for the full control effect; potency is read from the fitted curve at half-maximal effect.

Compound | Potency | activity change, negative = cytotoxicity
CCn1c(SCC(=O)N2CCCCC2)nnc1-c1ccc(S(=O)(=O)N2CCN(C)CC2)cc1 | inconclusive: 5.17 µM [activator, single point] | 
COc1cccc(/C=N/Nc2ccc([N+](=O)[O-])cn2)c1O | inconclusive: 16.4 µM [falling, partial curve, poor fit] | 
COc1cc(OC)cc(-c2nnc(NC(=O)CCS(=O)(=O)c3ccc(F)cc3)o2)c1 | inconclusive: 20.6 µM [falling, single point] | 
O=C(CSc1nc(-c2ccccc2)nc2ccccc12)Nc1nccs1 | inconclusive: 16.4 µM [falling, partial curve, poor fit] | 
Cn1cc(S(=O)(=O)c2cccc(Cl)c2)c(=O)c2cc(F)c(N3CCCCC3)cc21 | inactive | 
O=C(NCCCCc1ccccc1)c1cccc(NC(=O)C2CCC2)c1 | inactive | 
CSc1cccc(NS(=O)(=O)c2ccc3c(c2)oc(=O)n3C)c1 | inactive | 
COc1cccc(CN(CC(=O)NC2CCCCC2)C(=O)c2csnn2)c1 | inconclusive: 23.1 µM [activator, single point] | 
CCOC(=O)c1c(N2CCN(c3ccccc3)CC2)cc(C)nc1C | inconclusive: 5.17 µM [activator, single point] | 
Cc1ccc(S/C=C\C(=O)c2ccccc2)cc1 |  | inactive: 1.15% [at 1.84 µM]
CCCSc1nc2c(c(=O)n1-c1ccc(OCC)cc1)SCC2 | inconclusive: 5.8 µM [falling, partial curve, poor fit] | 
COc1cc(-c2nc(-c3ccc(NC(=O)c4ccc5c(c4)OCO5)cc3)no2)cc(OC)c1OC | inconclusive: 29.1 µM [falling, single point] | 
FC(F)Oc1ccc(-n2cc(-c3ccccc3)[n+]3c2CCCCC3)cc1 | inconclusive: 2.31 µM [activator, full curve, poor fit] | 
C=C1c2ccccc2NC(=O)N1c1ccc(C)cc1 | inconclusive: 25.9 µM [falling, partial curve, poor fit] | 
COCP(=O)(c1ccccc1)c1ccccc1 | inconclusive: 32.6 µM [activator, partial curve, poor fit] | 
CC(=O)c1ccc(N2CCN(c3ccc(C(N)=O)cc3[N+](=O)[O-])CC2)cc1 | inactive | 
CCN1CCN(CCC2Oc3cc([N+](=O)[O-])ccc3NC2=O)CC1 (stereo unspecified) | inconclusive: 25.9 µM [falling, partial curve] | 
CCOC(=O)c1c(CN2CCOCC2)n(-c2ccccc2)c2cc(Br)c(OC)cc12 | inactive | 
COc1ccc(NS(=O)(=O)c2c(C)cc(C)cc2C)cc1 | inconclusive: 25.9 µM [falling, partial curve, poor fit] | 
COC(=O)c1ccc(-c2ccc([C@H]3[C@H]4C=CC[C@@H](C)[C@@H]4C(=O)N3Cc3ccccc3)c(F)c2)cc1 | inactive | 
Cc1cccc(Nc2nnc(-c3ccc(C)c(S(=O)(=O)N4CCN(C)CC4)c3)c3ccccc23)c1 | inconclusive: 18.4 µM [falling, single point] | 

Compound | Potency | activity change, negative = cytotoxicity
Cn1cc(SCC(=O)NCc2ccc3c(c2)OCO3)c2ccccc21 | inconclusive: 20.6 µM [activator, partial curve, poor fit] | 
c1ccc(-c2cc3c(NCC4COc5ccccc5O4)ncnc3s2)cc1 (stereo unspecified) | inconclusive: 14.6 µM [falling, partial curve, poor fit] | 
O=C(CN(c1ccc(Cl)cc1)S(=O)(=O)c1ccc(Cl)c([N+](=O)[O-])c1)NCCc1ccccc1 | inconclusive: 23.1 µM [falling, partial curve, poor fit] | 
COc1ccc(S(=O)(=O)N/N=C(/C)c2cccc(NC(=O)c3ccccc3Cl)c2)cc1 | inconclusive: 23.1 µM [falling, partial curve, poor fit] | 
N#Cc1ccccc1Cn1cc(/C=N/Nc2ccc([N+](=O)[O-])cn2)c2ccccc21 | inconclusive: 18.4 µM [falling, partial curve, poor fit] | 
Cc1cccc(NCc2nnc(-c3ccccc3)o2)c1C | inconclusive: 25.9 µM [activator, partial curve, poor fit] | 
C#CCOCCOCCOCCNc1nc(N2CCN(C(=O)CCCCCCCCCCNC(=O)[C@H](CCCCN)n3cc(CCO)nn3)CC2)nc(N2CCN(C(=O)CCCCCCCCCCNC(=O)[C@H](CCCN=C(N)N)n3cc(C[C@@H](C)CC)nn3)CC2)n1 | inconclusive: 29.1 µM [falling, single point] | 
CCOC(=O)c1ccc(NC(=O)Cn2c3ncccc3c(=O)n2-c2ccc(C)c(C)c2)cc1 | inconclusive: 8.2 µM [falling, partial curve, poor fit] | 
Cc1cc(C)n(-c2nc(C)c(C)c(=O)n2CC(=O)Nc2cccc([N+](=O)[O-])c2)n1 | inconclusive: 20.6 µM [falling, partial curve, poor fit] | 
CCOc1ccc(N(C(=O)/C=C/C(=O)Nc2cc(C)on2)C(C(=O)NC2CCCC2)c2ccccc2C)cc1 (stereo unspecified) | inconclusive: 0.082 µM [falling, full curve, poor fit] | 
O=C(CSc1nnnn1-c1ccc2c(c1)OCCO2)Nc1nc2c(s1)CCCC2 | inconclusive: 29.1 µM [falling, single point] | 
CCCNC(=O)N1[C@H](c2cccs2)[C@@H](C)C(=O)[C@@H](C)[C@@H]1c1cccs1 | inconclusive: 32.6 µM [activator, partial curve, poor fit] | 
S=C(NCc1ccc(Cl)cc1)NCc1ccccn1 | inconclusive: 0.92 µM [activator, full curve, poor fit] | 
COc1ccc(OC)c(NC(=O)N2CC3CCCN3c3ccccc32)c1 (stereo unspecified) | inconclusive: 3.66 µM [activator, full curve, poor fit] | 
CCOC(=O)c1cccc(NC(=O)N2CC=C(c3c[nH]c4ccccc34)CC2)c1 | inconclusive: 32.6 µM [falling, partial curve, poor fit] | 
O=C(NCCc1ccc(Cl)cc1)C1CCN(Cc2cc3ccccc3n2Cc2ccccc2)CC1 | inconclusive: 18.4 µM [falling, single point] | 
COc1ccc(CNC(=O)[C@H](C)N2C(=O)N3CCc4c([nH]c5ccc(OC)cc45)[C@@]3(C)C2=O)cc1 | inactive | 
CCOC(=O)C1(CC2CCCCO2)CCN(S(=O)(=O)c2cc(C)cs2)CC1 (stereo unspecified) | inconclusive: 3.66 µM [activator, partial curve, poor fit] | 
O=C(Nc1ccccc1O)C(c1ccccc1)c1ccccc1 | inactive | 
N/N=C/C(=N\Nc1ccc(Cl)cc1)C(=O)c1ccncc1 | inconclusive: 20.6 µM [falling, single point] | 
Cc1ccc(-n2cc(CNCCn3nc(C)cc3C)c(-c3ccc(F)cc3)n2)cc1 | inconclusive: 29.1 µM [falling, partial curve, poor fit] | 

14 of the compounds above, as tab-separated lines:
Compound	Potency	activity change, negative = cytotoxicity
Cc1cccc(NCc2nnc(-c3ccccc3)o2)c1C	inconclusive: 25.9 µM [activator, partial curve, poor fit]	
C#CCOCCOCCOCCNc1nc(N2CCN(C(=O)CCCCCCCCCCNC(=O)[C@H](CCCCN)n3cc(CCO)nn3)CC2)nc(N2CCN(C(=O)CCCCCCCCCCNC(=O)[C@H](CCCN=C(N)N)n3cc(C[C@@H](C)CC)nn3)CC2)n1	inconclusive: 29.1 µM [falling, single point]	
CCOC(=O)c1ccc(NC(=O)Cn2c3ncccc3c(=O)n2-c2ccc(C)c(C)c2)cc1	inconclusive: 8.2 µM [falling, partial curve, poor fit]	
Cc1cc(C)n(-c2nc(C)c(C)c(=O)n2CC(=O)Nc2cccc([N+](=O)[O-])c2)n1	inconclusive: 20.6 µM [falling, partial curve, poor fit]	
CCOc1ccc(N(C(=O)/C=C/C(=O)Nc2cc(C)on2)C(C(=O)NC2CCCC2)c2ccccc2C)cc1 (stereo unspecified)	inconclusive: 0.082 µM [falling, full curve, poor fit]	
O=C(CSc1nnnn1-c1ccc2c(c1)OCCO2)Nc1nc2c(s1)CCCC2	inconclusive: 29.1 µM [falling, single point]	
CCCNC(=O)N1[C@H](c2cccs2)[C@@H](C)C(=O)[C@@H](C)[C@@H]1c1cccs1	inconclusive: 32.6 µM [activator, partial curve, poor fit]	
S=C(NCc1ccc(Cl)cc1)NCc1ccccn1	inconclusive: 0.92 µM [activator, full curve, poor fit]	
COc1ccc(OC)c(NC(=O)N2CC3CCCN3c3ccccc32)c1 (stereo unspecified)	inconclusive: 3.66 µM [activator, full curve, poor fit]	
CCOC(=O)c1cccc(NC(=O)N2CC=C(c3c[nH]c4ccccc34)CC2)c1	inconclusive: 32.6 µM [falling, partial curve, poor fit]	
O=C(NCCc1ccc(Cl)cc1)C1CCN(Cc2cc3ccccc3n2Cc2ccccc2)CC1	inconclusive: 18.4 µM [falling, single point]	
COc1ccc(CNC(=O)[C@H](C)N2C(=O)N3CCc4c([nH]c5ccc(OC)cc45)[C@@]3(C)C2=O)cc1	inactive	
CCOC(=O)C1(CC2CCCCO2)CCN(S(=O)(=O)c2cc(C)cs2)CC1 (stereo unspecified)	inconclusive: 3.66 µM [activator, partial curve, poor fit]	
O=C(Nc1ccccc1O)C(c1ccccc1)c1ccccc1	inactive	

Following part:

Compound | Potency | activity change, negative = cytotoxicity
O=C(Cn1nc(C(F)(F)F)c2c1CCCC2)Nc1cccc(Cl)c1 | inconclusive: 13 µM [falling, partial curve, poor fit] | 
FC(F)(F)c1cccc(N2CCN(c3ncnc4c3nc3n4CCCC3)CC2)c1 | inactive | 
Cc1ccccc1NC(=O)Cn1cc(S(=O)(=O)c2ccccc2)c(=O)c2ccccc21 | inactive | 
CC(C)N(Cc1ccccc1)C(=O)c1nc(-c2ccc(Cl)cc2)n2c1CCCCC2 | inactive | 
CC1CCc2c(nc3ncnn3c2NCCc2ccccc2F)C1 (stereo unspecified) | inconclusive: 9.2 µM [falling, partial curve] | 
CCOc1ccc(-n2c(C)cc(/C=C3/C(=N)N4C(=NC3=O)SN=C4S(C)(=O)=O)c2C)cc1 | inconclusive: 25.9 µM [falling, partial curve, poor fit] | 
Cc1ccc[n+](CC(=O)Nc2cc(C(F)(F)F)ccc2Cl)c1 | inactive | 
CCOC(=O)c1cnc2c(ccc3ccccc32)c1Nc1ccc(N(C)C)cc1 | inactive | 
CCN(CC)C1CCN(C(=O)c2ccc(OC3CCN(Cc4ccccn4)CC3)cc2)C1 (stereo unspecified) | inconclusive: 23.1 µM [falling, single point] | 
CCCCNc1c(-c2ccc(SC3CCCCC3)cc2)nc2cnccn12 | inconclusive: 13 µM [activator, partial curve, poor fit] | 
Cc1ccc2nc3c(cc(C(=O)NCC4CCCO4)c(=N)n3C3CCCC3)c(=O)n2c1 (stereo unspecified) | inconclusive: 13 µM [activator, partial curve] | 
CC(=O)N1CCN(c2ccc([N+](=O)[O-])c(NCC3CCCO3)c2)CC1 (stereo unspecified) | inconclusive: 29.1 µM [falling, single point] | 
O=C(NNc1ccccc1Cl)C(O)(c1cccc(C(F)(F)F)c1)c1cccc(C(F)(F)F)c1 | inconclusive: 23.1 µM [falling, single point] | 
Cc1cccn2c(=O)c3cc(C(=O)NCCN4CCOCC4)c(=N)n(CCc4ccccc4)c3nc12 | inconclusive: 29.1 µM [falling, single point] | 
NC(=O)c1c(N)sc2c1CCCC2 | inactive | 
O=[N+]([O-])c1ccc(O)c(Nc2c([N+](=O)[O-])ccc3nonc23)c1 | inconclusive: 20.6 µM [falling, single point] | 
O=C(Nc1ccc2c(c1)oc1ccccc12)c1ccc2c(c1)OCO2 | inconclusive: 1.84 µM [falling, partial curve, poor fit] | 
CCCc1[nH]n(-c2ccc([N+](=O)[O-])cc2)c(=O)c1C(C)=NCc1ccncc1 | inconclusive: 32.6 µM [falling, partial curve, poor fit] | 
CCN(CC(O)CON=C1c2ccccc2-c2ccccc21)S(=O)(=O)c1ccc(C)cc1 (stereo unspecified) | inconclusive: 32.6 µM [falling, single point] | 

Source: PubChem BioAssay AID504648 (National Center for Advancing Translational Sciences (NCATS), 2011)
